These results are taken from publication PMC4438057.

Chains of the proteins cited; added tags and fusions are not shown.
UniProt Q9Y4G2: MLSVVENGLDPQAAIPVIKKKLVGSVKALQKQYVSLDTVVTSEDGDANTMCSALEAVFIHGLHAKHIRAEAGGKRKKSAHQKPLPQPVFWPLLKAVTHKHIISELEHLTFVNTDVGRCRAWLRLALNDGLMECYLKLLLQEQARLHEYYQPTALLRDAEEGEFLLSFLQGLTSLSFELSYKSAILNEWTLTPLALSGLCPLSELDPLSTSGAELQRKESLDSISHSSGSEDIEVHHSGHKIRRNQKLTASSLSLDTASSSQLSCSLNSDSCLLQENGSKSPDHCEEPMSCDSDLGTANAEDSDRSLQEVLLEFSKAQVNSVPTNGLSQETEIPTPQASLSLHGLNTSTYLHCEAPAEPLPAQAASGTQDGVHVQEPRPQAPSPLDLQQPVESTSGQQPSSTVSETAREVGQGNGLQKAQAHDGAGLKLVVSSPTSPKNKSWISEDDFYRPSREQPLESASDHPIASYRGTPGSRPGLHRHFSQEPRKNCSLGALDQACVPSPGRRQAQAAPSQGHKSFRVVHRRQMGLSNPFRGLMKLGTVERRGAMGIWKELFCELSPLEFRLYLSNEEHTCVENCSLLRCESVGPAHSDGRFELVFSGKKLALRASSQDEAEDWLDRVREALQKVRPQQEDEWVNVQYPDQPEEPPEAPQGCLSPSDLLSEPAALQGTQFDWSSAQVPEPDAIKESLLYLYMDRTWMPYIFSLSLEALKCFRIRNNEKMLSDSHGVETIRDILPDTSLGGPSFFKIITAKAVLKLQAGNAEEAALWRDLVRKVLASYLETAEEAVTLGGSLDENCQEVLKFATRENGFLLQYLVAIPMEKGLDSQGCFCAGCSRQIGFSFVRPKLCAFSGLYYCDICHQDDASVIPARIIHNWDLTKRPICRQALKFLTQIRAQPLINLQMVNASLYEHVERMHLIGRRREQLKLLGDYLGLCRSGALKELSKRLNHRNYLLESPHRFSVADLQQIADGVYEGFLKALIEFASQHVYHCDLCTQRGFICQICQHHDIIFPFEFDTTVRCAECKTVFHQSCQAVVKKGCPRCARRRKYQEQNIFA
UniProt O14545: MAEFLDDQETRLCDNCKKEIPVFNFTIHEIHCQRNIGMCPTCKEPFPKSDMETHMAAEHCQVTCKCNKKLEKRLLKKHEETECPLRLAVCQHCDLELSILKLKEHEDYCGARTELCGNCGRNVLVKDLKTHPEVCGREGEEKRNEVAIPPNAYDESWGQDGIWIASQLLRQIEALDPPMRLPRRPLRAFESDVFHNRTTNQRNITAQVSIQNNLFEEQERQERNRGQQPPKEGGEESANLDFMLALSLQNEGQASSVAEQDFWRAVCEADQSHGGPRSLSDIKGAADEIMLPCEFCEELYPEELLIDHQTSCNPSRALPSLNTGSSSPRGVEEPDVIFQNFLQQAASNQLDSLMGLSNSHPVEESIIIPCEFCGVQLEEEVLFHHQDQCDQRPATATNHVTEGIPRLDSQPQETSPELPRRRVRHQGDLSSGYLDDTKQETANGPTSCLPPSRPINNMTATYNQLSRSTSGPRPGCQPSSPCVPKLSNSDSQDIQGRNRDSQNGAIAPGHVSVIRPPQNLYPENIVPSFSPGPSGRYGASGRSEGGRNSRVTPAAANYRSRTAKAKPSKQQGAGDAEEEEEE

Results are given in words; binding and its absence hold for the method and conditions named. In cells and extracts the contact can be indirect. These calls come from enrichment with a bait or labelling near it, and not all partners need be listed.

This test addresses TAP-tagged full-length human Plekhm1 (human) (UniProt Q9Y4G2). Nature of the test: affinity purification with mass spectrometry; tandem affinity purification (Streptavidin Sepharose, then Calmodulin Sepharose) of TAP-tagged Plekhm1 from lysate of stably expressing HEK293 cells; eluates analysed by LC-MS/MS.

As to “TRAFD1 (FLN29), endogenous in HEK293 cells (from UniProt O14545 1-582)”, the binding entry is on record as “binds”.
